Screen size: about 53,000 sequences; about 3,700 (7%) were called active.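 Rule for the calls: active = gene knockdowns whose robust z-score for IL-1 alpha signal is at least 2 or at most -2, so actives lie on both sides; inactive = the rest.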 This is one part of the list.

The nature of this assay: Components of the Cytosolic LPS Sensing Pathway: Gene Identification via Genome-wide siRNA Screen.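 Note: robust z of the log signal after scaling to non-targeting control siRNA wells of the plate.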 The settings on record: RAW264.7 macrophages, IL-1a HTRF, actives lie on both sides, screened at 100 nM (by protocol), cells primed 5 h with Pam3CSK4 first. Summed up: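 Cells (RAW264.7, 1×10^4 per well) were transfected with siRNA at 100 nM and cultured 48h at 37 degrees C. Pam3CSK4 was added for 5 hours; LipidA transfection followed for 24 hour. IL-1a was then measured by HTRF.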
In general terms: TR-FRET usually uses a lanthanide donor and a delayed reading to cut background.
For GCCAACGGAGUUCCCACUATT against Cited1, the z-score is inactive: -0.586.

For the sequence GAGCCUUCUAAGUCUGCACTT against H2bc3, the z-score was inactive: -1.31.

On to GGCACUUGUAUAUGAACUATT against Fbxo36, for which the z-score is inactive: 0.106.

Turning to GGGAGUGAGUUCUGGAGUGTT against Capn2, the z-score is inactive: 0.815.

Regarding GAUGAAGAGGCAGGCCAAGTT against Nkx2-4, the z-score is active: 2.63.

In the case of GGAGGAGUUGCUAUUAGACTT against Lin28b, the z-score was inactive: -0.182.

Consider GCACUUCAAUGAGCGAGAATT against Mknk1, for which the z-score was inactive: -1.48.

Consider “GGUGGUCACUAGCUAACCCTT against 4632433K11Rik”, for which the z-score was inactive: 0.548.

Consider GCCCUUAUGGACGAAAUUUTT against Ang2, for which the z-score was inactive: 0.0523.

In the case of GGAAAAAAGACCACCAAGATT against Mtif2, the z-score is inactive: -0.693.

As to GCCGAAGAACUAAAAGACUTT against Cyb5a, the z-score is inactive: 1.79.

For the sequence GGUGAAGAAAGUCAAGAAGTT against Spi1, the z-score is active: -2.46.

With GGCCCUCACCAUCUUUUGGTT against Olfr691, the z-score is inactive: -1.15.

Turning to GGCAGAUUCAGAAUUGUCUTT against Il17a, the z-score was active: -2.58.

For the sequence GGAAUUAUCGCAUCUUUGATT against Sh3bp2, the z-score was inactive: 0.0729.

For GGAACUGGACAAGGACGAUTT against Arhgdia, the z-score was inactive: 1.17.

Turning to GGACCUGACAGUUCAAAAATT against Dars, the z-score was inactive: 0.856.

As to GGAUGCAGUACGAAAUUCUTT against Psmd1, the z-score was active: -2.93.

As to GGACAUUGAUGUCAUAGAATT against Endod1, the z-score is inactive: -0.511.

Consider GGAAUUCUCCUUCCUCACUTT against Cyp21a1, for which the z-score is inactive: -0.429.

Turning to “GGGAAUCACAAGAGAAACATT against 1700052K11Rik”, the z-score was inactive: 0.0375.

With GGAUAAACAGCUGAAGGUGTT against Ccs, the z-score is inactive: 0.762.

In the case of GGUCCCAUCUUUGCUUUGATT against Tbl1x, the z-score was inactive: 0.225.

Take GGAACAUGUCUUCAAGAGATT against Stac2: the z-score is inactive: -0.523.

Take GGUGCUUGAUUUUGUGCAGTT against Psmd13: the z-score is inactive: -0.00516.

On to GGCUUUCUGGAAGAUACUUTT against Hrh4, for which the z-score is inactive: -0.47.

As to GGCCCAAGUGACUAAGAACTT against Tgm1, the z-score was inactive: -1.61.

Consider GGAAGGAGAGGAAAUUAAATT against Nrg3, for which the z-score is inactive: -1.95.

In the case of GGUGCUAAGAAAAUCAAAGTT against Ryr2, the z-score is active: 3.64.

Turning to “AGACAGAUUCCAGUCCUGGTT against 4930451I11Rik”, the z-score was inactive: -0.479.

Regarding GCCCAGAAUCAACUCCUACTT against Wwp2, the z-score was inactive: -0.423.

For the sequence GCUAAAGUGACCUUAAAACTT against Phactr4, the z-score is inactive: -0.382.

Regarding GGCUAUGGAUGUCUCCAAUTT against Gstm4, the z-score is inactive: 1.17.

As to GCUAGAGGAUGGCUGAGCUTT against Poll, the z-score was inactive: -0.581.

Take GGAUCUAGAUGAGAAUGAATT against Fip1l1: the z-score was inactive: -1.36.

Turning to CCGUCAUGCUGAUUGCCUUTT against Gpr119, the z-score is inactive: -0.538.

As to GCCUAUUAUAUUUAGACAGTT against Col4a6, the z-score is inactive: 0.611.

Consider GUUGAGUGGCUGUGAUAUATT against Nms, for which the z-score is inactive: -0.00159.

GGAGGAAUAUGACACAGUGTT against Wars2: the z-score was inactive: 0.138.

For the sequence GAAAGCAUUUAAUGCCCAATT against Vmn1r78, the z-score was inactive: 1.3.

Turning to GGGACCAAGCAGGUAAAAATT against Kif3a, the z-score was inactive: -0.0378.

On to GGAAUUAAAGAGGAAACAATT against Zfp354b, for which the z-score is inactive: 1.33.

As for GGAAGUGUCUGCCAGAGAUTT against Lysmd2, the z-score is inactive: -1.75.

With CCCAAACAUAGCUGAAUAATT against Muc1, the z-score was inactive: 0.413.

On to GGUCAAUAUCCUCGGACAUTT against Hsd17b13, for which the z-score was inactive: -0.386.

As to GCCCUGUCGUUUAUUGUGGTT against Cacng4, the z-score was inactive: 0.225.

As to GGACUGUGACAAAGCCUAUTT against Klk1b1, the z-score was inactive: -0.129.

In the case of GGAUUCUCAGAAUGCUGGUTT against Polr3f, the z-score was inactive: 1.31.

Consider GCCGAGCAGAUGUACAGAATT against Zfp39, for which the z-score is active: 2.93.

For the sequence GGAAAAUGGUUCUUUCUGCTT against Abhd12, the z-score was inactive: -1.22.

Regarding CCAGGUAUUCUUAAUAGACTT against Zfp207, the z-score was inactive: -1.56.

Turning to GCGAGUCGUGAUUGACAACTT against Pnkp, the z-score is inactive: 0.311.

Take GGACUUUUUUCCAGAUUAUTT against Paip1: the z-score is inactive: 1.31.

For GGUCAUUCAGUGGUGCACCTT against Skp1, the z-score was inactive: -0.00227.

CCUAAGCUUAGAUCAACAUTT against Dhx36: the z-score was inactive: -0.735.

With CCCAUAACAUUGGUGAUUATT against Vmn1r235, the z-score was inactive: -0.205.

On to UCGAGUGAAGCAGUCUCCATT against Fam189a1, for which the z-score is active: -2.13.

For GCUAUGUCAACAGUAACAUTT against Mmel1, the z-score is inactive: -0.683.

Consider GCAUCUAUUGGAUUUACAUTT against Nup153, for which the z-score was inactive: 0.62.

For CCCACAGAAUCACUCCAAGTT against Utp14a, the z-score was inactive: -0.211.

For AUGCGUCCUUCACCAACGATT against Tmem158, the z-score was active: -3.28.

Consider CCCAUCAUUAGAAUUACUUTT against Vdac2, for which the z-score is inactive: 1.75.

Regarding GGUUAUAUUAUGUAGCCUATT against Klf17, the z-score is inactive: 0.332.

In the case of GGACUCAAAAGUCCCUGUATT against Adgrg3, the z-score was inactive: -1.65.

As for GGUGGGCUCAAGAACUUCUTT against Lypd11, the z-score was inactive: -0.12.

With GGACUUAUGCCGACAGCUUTT against Tnni3, the z-score was inactive: 0.0039.

As to GCACGUUCAGUGCACACCUTT against Nubp1, the z-score was active: 2.59.

For the sequence “GGUCUUGUUUCUUGAGACCTT against C130050O18Rik”, the z-score was inactive: 0.393.

As for GCUGAACAGGUGGUACAAUTT against B3gnt2, the z-score is inactive: -0.612.

For GGAGCAAAAUUCACAGUCUTT against Bcl7a, the z-score was inactive: -0.25.

GGAACUAACCAACGACUAATT against Tdrp: the z-score was inactive: 0.0936.

As for GGUUUAUGCUGUGAAUACATT against Nupl1, the z-score is inactive: -0.967.

With CCCAGGCACUUGUUUACAGTT against Stim2, the z-score is inactive: -0.454.

In the case of GCACAUUUACAGCCUAAUGTT against Cacul1, the z-score is inactive: -0.0731.

As to GGCACGAUGAGCUCUCCUATT against Cstb, the z-score was inactive: -1.64.

Take GGCCUCAAGCAGACUUUGATT against Myo9b: the z-score is inactive: -0.991.

Regarding CCAUAUCCCUGGACUAGAGTT against Pglyrp4, the z-score was inactive: -0.515.

For the sequence GCUAACUGCUACUAAAAUATT against Ndp, the z-score was inactive: 0.0189.

With CCCUCUACAAUAAGAUGCATT against Rusc2, the z-score is inactive: 1.37.

With GGGUGACUGAACUUAGAAATT against Cd209c, the z-score was inactive: -0.673.

Take GGUUUACAAGAGUUACAGUTT against Brpf1: the z-score is inactive: 0.493.

Turning to GCAGAUCAGAGACAGAGUUTT against Olfr582, the z-score is inactive: -0.137.

Take GGUGAUGGUUGGGUUUCUCTT against Olfr1449: the z-score is inactive: -0.987.

For CGUACCUAAGCAUACCAGCTT against Gpr20, the z-score is active: 4.94.

As to CCAUAGAACAAGCUACACCTT against Cd160, the z-score was inactive: -0.157.

Turning to GGUGAAAGUUUACCUUCGATT against Kif20a, the z-score was inactive: -1.71.

AGCAUCCUAAAUUCAAAAATT against Gm5409: the z-score is inactive: 1.12.

As for GGAACUUUAGUUUGCGUAUTT against Emp2, the z-score is inactive: -0.236.

Consider GGAUAAUUGCUCAAGCCUGTT against Serac1, for which the z-score is inactive: 0.688.

Take GGAUUCAGUCAAGAAUUUGTT against Dhx29: the z-score is inactive: -0.0935.

On to GGGAGAAGUGUAACAAAUUTT against Gm14461, for which the z-score is inactive: -0.329.

On to GGAGGGUCUCCUAAUUUUUTT against Kdelr1, for which the z-score was inactive: 0.557.

On to GCUUGAUCUUGCAUUUGGUTT against Smyd3, for which the z-score was inactive: 0.5.

For CCAAGGCCGAAAAGCCUGUTT against Rps19bp1, the z-score was inactive: -0.183.

In the case of CGAACAUGAGUGGAUUGUCTT against Morn5, the z-score is inactive: -1.36.

Take GCAUUUAAUCCUGCACUCCTT against Lrp10: the z-score was inactive: -0.104.

Consider GGACACCACCAAUCUUGACTT against Arsg, for which the z-score was inactive: -1.57.

On to GGUACCAUUAGUGGAGUCCTT against Hoxb9, for which the z-score is inactive: -0.794.

Consider GGUCAGAUUAACAAAUUCGTT against Proz, for which the z-score is inactive: -0.188.

GGUGACUAACGAGAUCAUUTT against Slc19a1: the z-score is inactive: 0.913.

For GGUCUUUGCCCUACAAACATT against Myof, the z-score is inactive: 0.523.

Regarding CCUUUUUGAUCGUUAUGAUTT against Dnajc11, the z-score is inactive: -0.696.

Consider GGCACAUUAGUAGAACACATT against Sorcs2, for which the z-score was inactive: -0.243.

Regarding CCAUCACCAGUCGAGAUGCTT against H13, the z-score was inactive: -0.521.

For GCCCUUCAGUAUUGACCUGTT against Tmem175, the z-score is inactive: 0.785.

Regarding GGAUUGAGUCCUAUGAAGGTT against Stard3nl, the z-score is inactive: -1.09.

These data come from PubChem BioAssay AID1508600 (Functional Genomics Laboratory (NCATS/FGL), 2020).
